Library screen at single concentrations

Protein sequences, listed by entry. Tags and fused reporters are not part of them. Residues count along the entry.
UniProt P9WPC5, whole entry: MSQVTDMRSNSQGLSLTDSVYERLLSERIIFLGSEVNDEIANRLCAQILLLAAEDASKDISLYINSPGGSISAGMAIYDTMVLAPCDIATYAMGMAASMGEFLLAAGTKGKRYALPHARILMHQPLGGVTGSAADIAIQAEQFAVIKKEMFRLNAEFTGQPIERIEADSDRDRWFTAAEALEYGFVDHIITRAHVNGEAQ
UniProt P9WPC3, whole entry partner: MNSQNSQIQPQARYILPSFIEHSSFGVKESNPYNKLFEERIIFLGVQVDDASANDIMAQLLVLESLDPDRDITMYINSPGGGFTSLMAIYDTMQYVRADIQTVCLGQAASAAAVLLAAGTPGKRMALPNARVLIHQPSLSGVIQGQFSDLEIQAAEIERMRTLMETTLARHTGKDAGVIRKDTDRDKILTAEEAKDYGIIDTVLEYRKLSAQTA
UniProt P9WNZ1, whole entry: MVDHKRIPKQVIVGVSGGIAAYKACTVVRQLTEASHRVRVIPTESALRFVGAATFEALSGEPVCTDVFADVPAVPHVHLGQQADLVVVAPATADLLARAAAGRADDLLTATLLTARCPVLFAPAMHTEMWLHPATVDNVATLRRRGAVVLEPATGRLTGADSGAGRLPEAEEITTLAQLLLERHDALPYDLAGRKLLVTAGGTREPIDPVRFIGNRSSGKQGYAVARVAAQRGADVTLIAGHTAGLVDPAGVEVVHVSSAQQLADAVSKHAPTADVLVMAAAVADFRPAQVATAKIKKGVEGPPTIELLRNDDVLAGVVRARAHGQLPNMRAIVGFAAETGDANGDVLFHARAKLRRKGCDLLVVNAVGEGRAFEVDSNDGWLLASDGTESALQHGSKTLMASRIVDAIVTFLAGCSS
UniProt Q8IDJ8, 1-583: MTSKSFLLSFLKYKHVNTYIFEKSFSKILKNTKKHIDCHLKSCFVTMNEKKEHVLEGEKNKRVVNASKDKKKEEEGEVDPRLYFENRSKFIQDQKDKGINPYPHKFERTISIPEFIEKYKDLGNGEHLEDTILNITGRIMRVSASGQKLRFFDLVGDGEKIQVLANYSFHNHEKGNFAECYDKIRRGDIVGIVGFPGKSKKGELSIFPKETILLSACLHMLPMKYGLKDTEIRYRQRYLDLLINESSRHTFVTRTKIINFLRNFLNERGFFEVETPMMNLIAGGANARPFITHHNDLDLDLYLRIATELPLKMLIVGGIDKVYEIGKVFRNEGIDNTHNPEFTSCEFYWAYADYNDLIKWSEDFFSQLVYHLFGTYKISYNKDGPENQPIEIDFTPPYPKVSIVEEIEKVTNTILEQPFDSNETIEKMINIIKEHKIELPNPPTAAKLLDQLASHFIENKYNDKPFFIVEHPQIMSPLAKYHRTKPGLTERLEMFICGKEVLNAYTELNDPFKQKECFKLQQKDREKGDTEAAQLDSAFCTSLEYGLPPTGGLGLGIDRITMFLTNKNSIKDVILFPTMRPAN

Measurements from “University of Dundee, Small-Polar-MMV Screening Library” (2021), ChEMBL document CHEMBL3988442.

ClpP1P2: 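Protease assay of ClpP1P2, read by the AMC dye that it sets free. Target: ClpP1P2, Mycobacterium tuberculosis (UniProt P9WPC5 and UniProt P9WPC3). Concentration: 50 µM. Direction is inferred from only a few compounds that gave an IC50; most scored high, so higher reads as stronger inhibition. Most other retested compounds had strongly negative values. About 69,000 compounds were tested under these conditions; 0.015% (about 10) showed 50% or more at least once.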
CoaBC: 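Coenzyme A biosynthesis protein CoaBC, Mycobacterium tuberculosis (UniProt P9WNZ1). Enzyme assay of CoaBC with a phosphate dye (Biomol Green) read at 650 nm. Compounds at 30 µM. Higher reads as stronger inhibition, judged from the few compounds that gave an IC50. Most strong results did not repeat in a second test. Of about 67,000 compounds tested this way, about 40 (0.06%) reached 50% or more in at least one test.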
PfKRS1: 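Lysine-tRNA ligase, Plasmodium falciparum 3D7 (UniProt Q8IDJ8). Enzyme assay of the cytosolic lysyl-tRNA synthetase in 384-well plates, read by luminescence. Concentration: 30 µM. Direction is inferred from only a few compounds that gave an IC50; most scored high, so higher reads as stronger inhibition. About 69,000 compounds were tested under these conditions; 0.071% (about 49) showed 50% or more at least once.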
Leishmania in macrophages: 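Cell assay of Leishmania donovani living inside macrophages; the read-out is not stated. Compounds at 30 µM. The record gives no direction; compounds that gave an IC50 in retests scored well above the rest, so higher reads as stronger inhibition. About 69,000 compounds were tested under these conditions; 1.5% (about 1,000) showed 50% or more at least once.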

Each number is a percent effect as filed.
The controls that fix the scale are not given in the record; negative values are as filed.
Compounds were drawn at random from those tested, without regard to their results.
Two or more numbers in one place are separate tests of the same structure; such repeats can differ widely.
A dash means the value is not listed here; it may have been measured.

SMILES,ClpP1P2,CoaBC,PfKRS1,Leishmania in macrophages
CC(=O)NCCNc1nccc(CCC(F)(F)F)n1,-15.34,11.98,1.182,29.45
CCc1cc(NCc2ccc(-n3cncn3)c(C)c2)n(C)n1,-5.84,6.237,0.8243,25.31
CCCNC(=O)c1nc2c(o1)CN(C(=O)CN(C)C)C2,-7.309,4.731,4.319,16.53
CCn1cc(Cn2cc(Cl)c(N)n2)c(C)n1,-6.241,-5.703,1.955,12.87
CCCC(O)CN1CCC(=O)N(CC)Cc2cc3c(cc21)OCO3 (stereo unspecified),7.672,2.663,6.674,-1.941
Cc1cc(C)c2nc(CN3CCC(CN)C3)cc(O)c2c1 (stereo unspecified),1.821,-27.38,2.67,-57.23
O=C(Cc1ccccn1)N1C[C@H]2CCC[C@@]2(COc2ccccn2)C1,0.7865,5.042,6.589,-
OCC1(NCc2cnc(-c3cccs3)s2)CCOCC1,-19.99,-0.8092,2.029,16.11
CCO[C@H]1CO[C@@]2(CCCN(S(=O)(=O)c3ccccc3)C2)C1,15.37,-1.673,-9.333,5.499
COc1ccc(CN2CCC3(CC2)CC(c2cccnc2)CO3)cc1 (stereo unspecified),-11.38,6.667,-4.769,-
N#Cc1cccc(CN2CCC3(CC(C(=O)NCC4CC4)=NO3)C2)c1 (stereo unspecified),-14.72,9.627,4.854,17.14
Cc1cc(N2CCC(O)(CN(C)C(=O)CCCN)C2)c2cnccc2n1 (stereo unspecified),-34.75,-3.881,1.641,35.39
CCNc1cc2c(nn1)CCN(C(=O)c1cccc3c1OCCO3)C2,2.28,3.373,3.211,19.9
CC(NC(=O)COc1ccccc1C(=O)O)c1ccc(F)cc1 (stereo unspecified),4.219,2.17,5.403,26.49
O=C1CCC2(CCCO2)CCN1Cc1noc(C2CCCC2)n1 (stereo unspecified),4.557,2.057,5.361,6.41
CN1CCN(Cc2cnc3n2CCN(C(=O)N2CCCC2)C3)CC1,-0.4188,2.792,-0.9288,38.18
CSc1cccc(NC(=O)CCC(=O)Nc2nccs2)c1,7.606,11.46,-0.834,36.02
O=C1OCCN1c1cccc(CNCc2cc(F)ccc2F)c1,-11.88,9.562,-0.2479,-19.72
Cc1cc(CN2CCN3C[C@H](c4ccccc4)[C@@H](CO)[C@H]3C2)on1,-8.498,2.421,2.785,-
Cc1nc(N2CCC(C(O)c3nccn3C)CC2)c2nc(C)oc2n1 (stereo unspecified),-0.7348,2.73,4.034,-11.81
COc1cccc(N2CCC(N3C[C@@H](NC(C)=O)[C@H](C(C)C)C3)CC2)c1,-0.13,4.839,-1.813,12.68
CCSc1nc2ccccc2c(=O)n1OCC(=O)OC,-7.545,3.038,-0.3041,7.173 and 6.921
[H][C@@]12CS(=O)(=O)C[C@]1([H])N(Cc1cnc(C)nc1)CCN2C(=O)CC,-,-,-,1.36
CNC(=O)COc1ccccc1CNCc1c(C)noc1C,-26.92,0.7317,3.61,2.061
O=C(CC1CC1)NCc1cn2c(n1)CN(Cc1cccnc1)CC2.O=C(O)C(F)(F)F.O=C(O)C(F)(F)F,-,-,-,31.52
Cc1ccc(CN2CCC3(CC2)CN(c2ccccc2)C(=O)CO3)o1,0.8311,2.1,-0.8834,-
CN(C)S(=O)(=O)c1ccc(CN2CCC(C(N)=O)CC2)o1,2.88,-5.353,1.638,-8.738
COc1ccc(C[C@H]2CN(C3CCOCC3)CC[C@H]2OCC2CC2)cc1.O=C(O)C(F)(F)F,-,-,-,27.1
CS(=O)(=O)Nc1nn(Cc2ccc(F)cc2)cc1Br,-19.92,7.852,-2.195,-28.7
COc1ncccc1C(=O)N1CC[C@H]2C[C@@H](c3ccncn3)O[C@@H]2C1,-7.361,6.266,4.468,-
CC(=O)N1CCC[C@H]1C(=O)NCCOc1cccc(Cl)c1,15.51,1.205,1.843,37.35
O=C(O)C(F)(F)F.O=S(=O)(c1cccs1)N1CC[C@H](O)[C@@H]1Cc1ccncc1,-,-,-,-23.05
Cc1nc(CN2CCCN(CCOc3ccc(C#N)cc3)CC2)no1,-0.8429,6.389,0.9393,15.31
Cc1nc2c(c(NCc3ccc(-c4ccccn4)s3)n1)CCNCC2,-6.768,-22.33,2.518,74.83
CCOc1ccc(-c2cc(=O)n3c(n2)CCCCC3)cc1,15.08,-1.337,-0.6793,-37.13
Cc1oc(CNC(=O)Cc2ccc3ccccc3c2)cc1C(=O)O,6.158,4.785,4.613,8.142
COCCC1(CNC(=O)NCC2CCC2)CCC1,-9.204,-1.071,1.17,-12.86
Cc1nc(-c2ccc(NCCc3ccc(O)cc3)nc2)[nH]c(=O)c1C,-9.037,3.507,0.4996,67.3
Cc1cnn(CCC(=O)N2CCCN(c3cccnn3)CC2)c1,1.622,3.394,2.081,-12.47
Cc1ccc(Oc2ncccc2CNC2CCSCC2)cn1,0.1965,-0.4292,3.415,30.3
CCN(CC)C(=O)c1nc2c(s1)CCN(Cc1cccc(OC)c1)CC2.O=C(O)C(F)(F)F,-,-,-,-7.279
OCCCN1CCCC1c1cccc(Br)c1 (stereo unspecified),0.5342,-7.642,8.765,1.528
Cc1nn(CC(O)CN2CCC(C)CC2)c(=O)c(C#N)c1C (stereo unspecified),-0.02805,5.357,8.134,19.7
CCOCc1cnc2n1CCN(Cc1nc(C)cs1)C2C.O=C(O)C(F)(F)F (stereo unspecified),-,-,-,-3.372
Cc1nnc(N2CC[C@H]3C[C@@H](C(=O)N4CCCC4)O[C@H]3C2)s1,8.981,-1.5,-1.769,-
CC(C)S(=O)(=O)N1CCC(c2cc3n(n2)[C@@H](C(F)(F)F)C[C@@H](C)N3)C1 (stereo partly specified),7.071,-6.218,3.873,-36.97
COc1ccc(CN2C[C@@H]3CC[C@H](C2)N(S(C)(=O)=O)C3)cc1,-5.206,6.884,7.753,-
Cn1c(Cn2cccn2)nnc1C1CCCN(c2ccncc2F)C1 (stereo unspecified),6.961,-1.316,-3.199,-21.04
Cc1nnc(N2CCC(CNC(=O)OC(C)(C)C)CC2)c(C#N)c1C,12.55,7.179,1.253,0.3433
Cc1cn2c(n1)CCC(NC(=O)c1ccc(S(C)(=O)=O)o1)C2 (stereo unspecified),-2.95,1.648,0.7309,27.15

Some entries from above, unchanged:

- CCN(CC)C(=O)c1nc2c(s1)CCN(Cc1cccc(OC)c1)CC2.O=C(O)C(F)(F)F | Leishmania in macrophages: -7.279%
- Cc1ccc(Oc2ncccc2CNC2CCSCC2)cn1 | ClpP1P2: 0.1965%; CoaBC: -0.4292%; PfKRS1: 3.415%; Leishmania in macrophages: 30.3%
- Cc1ccc(CN2CCC3(CC2)CN(c2ccccc2)C(=O)CO3)o1 | ClpP1P2: 0.8311%; CoaBC: 2.1%; PfKRS1: -0.8834%
- Cc1nc(-c2ccc(NCCc3ccc(O)cc3)nc2)[nH]c(=O)c1C | ClpP1P2: -9.037%; CoaBC: 3.507%; PfKRS1: 0.4996%; Leishmania in macrophages: 67.3%
- N#Cc1cccc(CN2CCC3(CC(C(=O)NCC4CC4)=NO3)C2)c1 (stereo unspecified) | ClpP1P2: -14.72%; CoaBC: 9.627%; PfKRS1: 4.854%; Leishmania in macrophages: 17.14%